The values that follow come from article PMC5430665.

The chains behind the UniProt entries cited, without tags or fusion partners.
UniProt P06730: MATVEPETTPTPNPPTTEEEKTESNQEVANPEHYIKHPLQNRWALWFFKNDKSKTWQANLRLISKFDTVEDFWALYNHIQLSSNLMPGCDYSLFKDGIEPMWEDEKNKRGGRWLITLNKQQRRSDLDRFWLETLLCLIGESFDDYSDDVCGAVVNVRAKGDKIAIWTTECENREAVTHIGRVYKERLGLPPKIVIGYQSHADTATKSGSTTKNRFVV
UniProt O75821: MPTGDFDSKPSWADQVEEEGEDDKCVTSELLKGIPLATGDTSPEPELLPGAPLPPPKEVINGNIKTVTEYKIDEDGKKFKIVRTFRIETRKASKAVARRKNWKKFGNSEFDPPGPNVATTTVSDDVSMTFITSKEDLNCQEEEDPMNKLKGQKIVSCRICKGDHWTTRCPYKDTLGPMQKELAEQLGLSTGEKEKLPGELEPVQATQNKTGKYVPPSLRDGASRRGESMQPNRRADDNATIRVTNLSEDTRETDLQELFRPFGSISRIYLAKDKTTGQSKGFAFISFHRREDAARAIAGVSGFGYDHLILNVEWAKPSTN
UniProt Q8JZQ9: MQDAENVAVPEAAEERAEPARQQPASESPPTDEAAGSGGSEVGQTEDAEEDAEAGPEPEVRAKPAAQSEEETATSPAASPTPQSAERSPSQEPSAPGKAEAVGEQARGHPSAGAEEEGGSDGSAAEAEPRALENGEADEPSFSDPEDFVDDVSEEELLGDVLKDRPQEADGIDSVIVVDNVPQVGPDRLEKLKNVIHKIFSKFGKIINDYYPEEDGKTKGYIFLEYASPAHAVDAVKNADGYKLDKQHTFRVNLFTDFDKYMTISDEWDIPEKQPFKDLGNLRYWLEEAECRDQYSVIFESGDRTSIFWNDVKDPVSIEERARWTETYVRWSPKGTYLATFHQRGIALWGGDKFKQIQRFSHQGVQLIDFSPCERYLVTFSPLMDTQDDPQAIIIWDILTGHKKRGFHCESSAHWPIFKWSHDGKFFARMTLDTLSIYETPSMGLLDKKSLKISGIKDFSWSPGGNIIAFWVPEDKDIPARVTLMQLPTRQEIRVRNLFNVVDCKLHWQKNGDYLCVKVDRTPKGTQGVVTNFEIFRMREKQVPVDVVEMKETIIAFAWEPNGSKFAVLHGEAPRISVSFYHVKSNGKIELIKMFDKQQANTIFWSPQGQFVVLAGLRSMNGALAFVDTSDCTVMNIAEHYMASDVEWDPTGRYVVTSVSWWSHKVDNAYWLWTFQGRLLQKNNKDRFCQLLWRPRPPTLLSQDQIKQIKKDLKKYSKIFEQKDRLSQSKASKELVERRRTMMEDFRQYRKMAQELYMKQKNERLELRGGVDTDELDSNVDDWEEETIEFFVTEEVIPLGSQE
UniProt P55884: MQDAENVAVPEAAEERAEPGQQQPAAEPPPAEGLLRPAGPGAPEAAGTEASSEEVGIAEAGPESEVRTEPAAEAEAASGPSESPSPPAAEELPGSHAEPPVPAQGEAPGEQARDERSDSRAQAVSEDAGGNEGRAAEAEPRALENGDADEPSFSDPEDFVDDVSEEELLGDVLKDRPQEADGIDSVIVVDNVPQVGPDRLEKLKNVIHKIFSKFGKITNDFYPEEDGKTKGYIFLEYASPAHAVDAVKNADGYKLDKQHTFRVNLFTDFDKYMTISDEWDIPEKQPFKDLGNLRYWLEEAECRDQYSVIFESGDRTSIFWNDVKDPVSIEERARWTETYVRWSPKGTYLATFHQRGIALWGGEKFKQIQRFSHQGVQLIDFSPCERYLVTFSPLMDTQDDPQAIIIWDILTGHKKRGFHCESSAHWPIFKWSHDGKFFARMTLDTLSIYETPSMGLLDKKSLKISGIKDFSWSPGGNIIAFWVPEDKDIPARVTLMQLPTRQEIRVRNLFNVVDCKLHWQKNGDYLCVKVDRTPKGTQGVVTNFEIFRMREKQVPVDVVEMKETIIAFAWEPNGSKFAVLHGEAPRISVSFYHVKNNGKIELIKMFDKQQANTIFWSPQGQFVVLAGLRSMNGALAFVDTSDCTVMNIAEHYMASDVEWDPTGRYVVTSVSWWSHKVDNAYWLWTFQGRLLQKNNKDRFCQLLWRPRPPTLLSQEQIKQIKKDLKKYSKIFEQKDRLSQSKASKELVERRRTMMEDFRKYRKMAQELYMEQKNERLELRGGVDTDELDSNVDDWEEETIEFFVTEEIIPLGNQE

In test [1] the target is eIF4E (human (endogenous in HEK293)) (UniProt P06730). Briefly: co-IP; endogenous proteins in total lysates of HEK293 cells; IgG as control; Co-IP buffer 50 mM Tris-HCl, 1 mM EDTA, 10 mM MgCl2, 5 mM EGTA, 0.5% Triton X-100, pH 7.28; also in OFD1-silenced and Bicc1-silenced cells.
Test [2] addresses T1, OFD1 (human (endogenous in HEK293)) (UniProt O75665).
T1 sequence: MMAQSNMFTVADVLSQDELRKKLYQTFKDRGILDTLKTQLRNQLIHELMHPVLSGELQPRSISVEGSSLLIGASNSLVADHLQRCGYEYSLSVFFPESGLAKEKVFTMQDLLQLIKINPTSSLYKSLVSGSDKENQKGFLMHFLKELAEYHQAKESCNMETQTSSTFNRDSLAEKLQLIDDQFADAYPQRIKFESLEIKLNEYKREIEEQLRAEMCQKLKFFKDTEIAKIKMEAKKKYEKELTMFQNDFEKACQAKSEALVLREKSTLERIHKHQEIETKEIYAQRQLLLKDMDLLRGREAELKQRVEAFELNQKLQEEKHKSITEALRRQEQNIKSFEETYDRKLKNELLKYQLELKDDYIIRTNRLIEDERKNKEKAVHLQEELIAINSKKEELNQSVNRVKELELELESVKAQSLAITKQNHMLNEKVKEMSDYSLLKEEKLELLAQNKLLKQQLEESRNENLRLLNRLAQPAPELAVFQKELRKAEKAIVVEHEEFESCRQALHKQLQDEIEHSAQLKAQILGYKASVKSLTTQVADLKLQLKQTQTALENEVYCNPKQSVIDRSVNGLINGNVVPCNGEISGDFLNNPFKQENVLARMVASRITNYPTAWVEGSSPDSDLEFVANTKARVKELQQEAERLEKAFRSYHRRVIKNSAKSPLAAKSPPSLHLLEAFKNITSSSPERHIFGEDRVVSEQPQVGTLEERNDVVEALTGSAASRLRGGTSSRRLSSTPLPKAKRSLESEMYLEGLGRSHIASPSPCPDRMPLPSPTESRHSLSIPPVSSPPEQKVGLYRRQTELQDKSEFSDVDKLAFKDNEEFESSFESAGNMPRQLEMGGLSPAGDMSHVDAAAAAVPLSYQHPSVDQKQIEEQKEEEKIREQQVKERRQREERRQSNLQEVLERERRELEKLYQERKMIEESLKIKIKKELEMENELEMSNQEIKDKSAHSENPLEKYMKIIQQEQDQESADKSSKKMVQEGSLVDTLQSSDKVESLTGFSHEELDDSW
The description is as above.

The target of test [3] is T2, 3XFLAG-OFD1 (human) (UniProt O75665).
T2 sequence: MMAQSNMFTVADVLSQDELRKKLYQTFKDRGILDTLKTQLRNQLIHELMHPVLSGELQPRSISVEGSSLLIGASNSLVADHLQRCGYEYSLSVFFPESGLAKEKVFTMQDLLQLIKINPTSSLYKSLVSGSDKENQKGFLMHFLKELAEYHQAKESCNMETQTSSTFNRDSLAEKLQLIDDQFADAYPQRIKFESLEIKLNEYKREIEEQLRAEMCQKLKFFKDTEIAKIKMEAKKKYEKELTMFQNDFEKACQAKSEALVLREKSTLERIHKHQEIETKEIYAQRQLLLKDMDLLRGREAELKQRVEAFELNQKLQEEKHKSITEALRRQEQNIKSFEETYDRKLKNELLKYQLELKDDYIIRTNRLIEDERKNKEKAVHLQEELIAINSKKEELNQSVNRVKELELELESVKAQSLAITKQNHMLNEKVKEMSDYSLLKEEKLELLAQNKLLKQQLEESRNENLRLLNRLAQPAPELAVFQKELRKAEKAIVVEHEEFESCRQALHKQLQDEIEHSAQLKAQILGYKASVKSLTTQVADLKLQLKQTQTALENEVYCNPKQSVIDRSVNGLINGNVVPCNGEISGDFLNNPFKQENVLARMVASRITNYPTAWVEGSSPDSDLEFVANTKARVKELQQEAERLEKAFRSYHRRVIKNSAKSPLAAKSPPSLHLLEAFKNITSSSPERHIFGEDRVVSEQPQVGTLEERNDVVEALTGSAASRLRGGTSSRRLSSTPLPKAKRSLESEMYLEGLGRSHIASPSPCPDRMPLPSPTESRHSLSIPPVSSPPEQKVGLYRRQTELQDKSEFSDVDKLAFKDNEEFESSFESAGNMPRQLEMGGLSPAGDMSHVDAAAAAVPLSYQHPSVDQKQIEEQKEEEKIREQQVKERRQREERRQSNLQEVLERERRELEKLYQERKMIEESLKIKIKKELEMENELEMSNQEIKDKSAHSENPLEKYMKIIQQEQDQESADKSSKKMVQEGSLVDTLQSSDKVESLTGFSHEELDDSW
Put plainly: co-IP; HEK293 lysates with 3XFLAG-OFD1 wild type or mutated in the eIF4E binding site (Y282S, Y282D); eIF4E detected by WB, eIF4E/OFD1 ratio quantified.

Test [4] deals with eIF3G (human (endogenous in HEK293)) (UniProt O75821). Put plainly: co-IP; endogenous proteins in total lysates of HEK293 cells; IgG as control; Co-IP buffer 50 mM Tris-HCl, 1 mM EDTA, 10 mM MgCl2, 5 mM EGTA, 0.5% Triton X-100, pH 7.28; also in OFD1-silenced and Bicc1-silenced cells.
Test [5] deals with eIF3B (murine) (mouse (endogenous in kidney)) (UniProt Q8JZQ9). Briefly: co-IP; polysomal fractions extracted from wild-type mouse kidneys (P8).
In test [6] the target is eIF3B (human (endogenous in HEK293)) (UniProt P55884). Put plainly: co-IP; HEK293 cells overexpressing Bicc1, control and OFD1-silenced cells.

No constants are given. Whether binding was seen depends on the method and setting. In cells and extracts the contact can be indirect. Some results given as binding are weak or reduced against the parent protein; the word gives no strength. For some of these results: Where a sequence is shown, tags or fusion partners need not be part of it.

Consider eIF3B (from UniProt P55884 1-814), for which the binding result in test [1] is on record as “binds”.

On to eIF3G (from UniProt O75821 1-320), for which, in test [2], the binding result is given as “binds”.

Take eIF4E (from UniProt P06730 1-217): the binding entry in test [2] and in test [3] was “binds” in each case.

B1: OFD1 (protein, UniProt O75665-1 1-1012)
chain: MMAQSNMFTVADVLSQDELRKKLYQTFKDRGILDTLKTQLRNQLIHELMHPVLSGELQPRSISVEGSSLLIGASNSLVADHLQRCGYEYSLSVFFPESGLAKEKVFTMQDLLQLIKINPTSSLYKSLVSGSDKENQKGFLMHFLKELAEYHQAKESCNMETQTSSTFNRDSLAEKLQLIDDQFADAYPQRIKFESLEIKLNEYKREIEEQLRAEMCQKLKFFKDTEIAKIKMEAKKKYEKELTMFQNDFEKACQAKSEALVLREKSTLERIHKHQEIETKEIYAQRQLLLKDMDLLRGREAELKQRVEAFELNQKLQEEKHKSITEALRRQEQNIKSFEETYDRKLKNELLKYQLELKDDYIIRTNRLIEDERKNKEKAVHLQEELIAINSKKEELNQSVNRVKELELELESVKAQSLAITKQNHMLNEKVKEMSDYSLLKEEKLELLAQNKLLKQQLEESRNENLRLLNRLAQPAPELAVFQKELRKAEKAIVVEHEEFESCRQALHKQLQDEIEHSAQLKAQILGYKASVKSLTTQVADLKLQLKQTQTALENEVYCNPKQSVIDRSVNGLINGNVVPCNGEISGDFLNNPFKQENVLARMVASRITNYPTAWVEGSSPDSDLEFVANTKARVKELQQEAERLEKAFRSYHRRVIKNSAKSPLAAKSPPSLHLLEAFKNITSSSPERHIFGEDRVVSEQPQVGTLEERNDVVEALTGSAASRLRGGTSSRRLSSTPLPKAKRSLESEMYLEGLGRSHIASPSPCPDRMPLPSPTESRHSLSIPPVSSPPEQKVGLYRRQTELQDKSEFSDVDKLAFKDNEEFESSFESAGNMPRQLEMGGLSPAGDMSHVDAAAAAVPLSYQHPSVDQKQIEEQKEEEKIREQQVKERRQREERRQSNLQEVLERERRELEKLYQERKMIEESLKIKIKKELEMENELEMSNQEIKDKSAHSENPLEKYMKIIQQEQDQESADKSSKKMVQEGSLVDTLQSSDKVESLTGFSHEELDDSW
In the case of B1, the binding result in test [4] is “binds”.

B2: Ofd1 (murine) (protein, UniProt Q80Z25 1-1017)
chain: MAQSNMPHKSDVLSQDELRKKLYQTFKDRGVLDTLQTQLRNQLIHELMHPVLSGEVKPPSISVEGSALLIGASNSLVADHLQRCGYEYSLSVFFPESGLAKEKIFTMQDLLQLIRINPSSSLYKSLISGFDKENKKGFLMSFLKELAEYYQAKESCDAETQTSTTFPSQVSLAEKFQLIDAQFADGFPHRSKLESLETKLNEYKKEVQHQLQVEMCHKLKYFREAEITKVKMEERRKYEKELAEFQNEFERTCQAKNEALISQEKNSLERIKKHREMESKEIYAQRQLLLNDIALLRGREAELKERIETFELTQKLQEEKIKSEAEALERREQNLKNIEDTYDQKLKTELLKYQLELKDDYITRTNKLLEEERKNKEKTIHLQEELTVINSKKEELSKSVKHMKEVELELESVKAQFLAISKQNHLLNEKVREMSDYSQLKEEKVELQAQNKLLKLQLEETRNENLRLLDRITQPPPELVIFQKELQKTEKAMELEHKDFETHRQALEKQLQSEIENSAQLRTQIAEYDASVKRLTVQVAELKSQLKQTQIALENEVYRNPKHSLIHSLSGLLLSGKMAPHSEDKSGDFLNVPLEQNKVIAGAVMSRVPPYVNTATEASSPESDFEFIASSTKAKVRELEQEAERLEKAFRTYYQRATQNPSTSPQPAKSPPSVNSVAALRSIASSSMDRPVSAEDRVVSEQPLGDMLKEEMSDMSKAFMGSVVSRPRRTSSSTRLSSTPHPKSRRSLDNEMYLEGLGRLHMTSSSPLLDRVSASPAASPSPCPERTAQASPVPSRHSFSGLPEQNACLYQRQTETQDKSELSNVDKQSLKDEKFEPPFRWNKTEQFEAEGLHPAGDMPGIDFAVATQSSRLISYDYPSAVQSQTGEQDEQELWELHMKERRQREEQRHNERQEALERERRELGKLEQERRMIEESLKMEMEEELEKSVQDQKDKSAHCENTLEKYMKIIQQRQEESNADKSSKKSGKECSLVDMMMPSDKDESSPGFSHEEPDDMW
As to B2, the binding result in test [5] is listed as “binds”.

B3: FLAG-Bicc1 (protein, UniProt Q99MQ1 1-977)
chain: MASQSEPGYLAAAQSDPGSNSERSTDSPVAGSEDDLVAAAPLLHSPEWSEERFRVDRKKLEAMLQAAAEGKGRSGEDFFQKIMEETNTQIAWPSKLKIGAKSKKDPHIKVSGKKEDVKEAKEMIMSVLDTKSNRVTLKMDVSHTEHSHVIGKGGNNIKKVMEDTGCHIHFPDSNRNNQAEKSNQVSIAGQPAGVESARARIRELLPLVLMFELPIAGILQPVPDPNTPSIQHISQTYSVSVSFKQRSRMYGATVTVRGSQNNTNAVKEGTAMLLEHLAGSLASAIPVSTQLDIAAQHHLFMMGRNGSNVKHIMQRTGAQIHFPDPSNPQKKSTVYLQGTIESVCLARQYLMGCLPLVLMFDMKEDIEVDPQVIAQLMEQLDVFISIKPKPKQPSKSVIVKSVERNALNMYEARKCLLGLESSGVSIATSLSPASCPAGLACPSLDILASAGLGLTGLGLLGPTTLSLNTSATPNSLLNALNTSVSPLQSSSSGTPSPTLWAPPIANTASATGFSTIPHLMLPSTAQATLTNILLSGVPTYGHTAPSPPPGLTPVDVHINSMQTEGKNISASINGHVQPANMKYGPLSTSSLGEKVLSSNHGDPSMQTAGPEQASPKSNSVEGCNDAFVEVGMPRSPSHSGNAGDLKQMLGASKVSCAKRQTVELLQGTKNSHLHGTDRLLSDPELSATESPLADKKAPGSERAAERAAAAQQKSERARLASQPTYVHMQAFDYEQKKLLATKAMLKKPVVTEVRTPTNTWSGLGFSKSMPAETIKELRRANHVSYKPTMTTAYEGSSLSLSRSSSREHLASGSESDNWRDRNGIGPMGHSEFSAPIGSPKRKQNKSREHYLSSSNYMDCISSLTGSNGCNLNSCFKGSDLPELFSKLGLGKYTDVFQQQEIDLQTFLTLTDQDLKELGITTFGARRKMLLAISELSKNRRKLFEPPNASCTSFLEGGASGRLPRQYHSDIASVSGRW
For B3, in test [6], the binding result is “binds”.
